Publication doi:10.1101/299552

By UniProt entry, the sequences of proteins in these tests, tags left out.
UniProt Q9WTX6: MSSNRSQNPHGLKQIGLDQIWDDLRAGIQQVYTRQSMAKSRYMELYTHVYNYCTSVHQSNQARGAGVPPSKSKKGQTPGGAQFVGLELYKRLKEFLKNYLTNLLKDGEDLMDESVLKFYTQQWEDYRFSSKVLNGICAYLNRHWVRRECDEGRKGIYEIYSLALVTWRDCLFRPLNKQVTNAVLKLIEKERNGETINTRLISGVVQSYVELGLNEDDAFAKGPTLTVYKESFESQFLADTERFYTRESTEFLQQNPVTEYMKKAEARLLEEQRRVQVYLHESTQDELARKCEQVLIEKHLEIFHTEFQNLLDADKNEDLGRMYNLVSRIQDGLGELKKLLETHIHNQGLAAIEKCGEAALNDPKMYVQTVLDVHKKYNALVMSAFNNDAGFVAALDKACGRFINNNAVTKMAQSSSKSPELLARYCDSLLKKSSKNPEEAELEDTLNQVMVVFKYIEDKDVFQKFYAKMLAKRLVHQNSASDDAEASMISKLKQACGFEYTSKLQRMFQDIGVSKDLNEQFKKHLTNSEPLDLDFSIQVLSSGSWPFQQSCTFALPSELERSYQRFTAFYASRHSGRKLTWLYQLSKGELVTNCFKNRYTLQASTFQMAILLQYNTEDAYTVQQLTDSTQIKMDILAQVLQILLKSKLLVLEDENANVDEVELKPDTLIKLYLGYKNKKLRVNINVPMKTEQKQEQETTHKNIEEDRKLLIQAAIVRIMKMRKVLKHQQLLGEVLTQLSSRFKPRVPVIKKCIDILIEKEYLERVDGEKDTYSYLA
UniProt P61290: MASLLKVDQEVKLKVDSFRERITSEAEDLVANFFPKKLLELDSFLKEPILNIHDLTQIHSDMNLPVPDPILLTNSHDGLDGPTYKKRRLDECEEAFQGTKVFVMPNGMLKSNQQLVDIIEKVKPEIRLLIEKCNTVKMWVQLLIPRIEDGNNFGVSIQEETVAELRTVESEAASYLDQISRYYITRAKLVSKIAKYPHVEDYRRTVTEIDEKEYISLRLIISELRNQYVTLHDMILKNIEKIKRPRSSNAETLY

T1: FS2-FBXL19 (epitope-tagged wild-type FBXL19, stable mouse ES cell line) (mouse) (UniProt Q6PB97)
T1 sequence: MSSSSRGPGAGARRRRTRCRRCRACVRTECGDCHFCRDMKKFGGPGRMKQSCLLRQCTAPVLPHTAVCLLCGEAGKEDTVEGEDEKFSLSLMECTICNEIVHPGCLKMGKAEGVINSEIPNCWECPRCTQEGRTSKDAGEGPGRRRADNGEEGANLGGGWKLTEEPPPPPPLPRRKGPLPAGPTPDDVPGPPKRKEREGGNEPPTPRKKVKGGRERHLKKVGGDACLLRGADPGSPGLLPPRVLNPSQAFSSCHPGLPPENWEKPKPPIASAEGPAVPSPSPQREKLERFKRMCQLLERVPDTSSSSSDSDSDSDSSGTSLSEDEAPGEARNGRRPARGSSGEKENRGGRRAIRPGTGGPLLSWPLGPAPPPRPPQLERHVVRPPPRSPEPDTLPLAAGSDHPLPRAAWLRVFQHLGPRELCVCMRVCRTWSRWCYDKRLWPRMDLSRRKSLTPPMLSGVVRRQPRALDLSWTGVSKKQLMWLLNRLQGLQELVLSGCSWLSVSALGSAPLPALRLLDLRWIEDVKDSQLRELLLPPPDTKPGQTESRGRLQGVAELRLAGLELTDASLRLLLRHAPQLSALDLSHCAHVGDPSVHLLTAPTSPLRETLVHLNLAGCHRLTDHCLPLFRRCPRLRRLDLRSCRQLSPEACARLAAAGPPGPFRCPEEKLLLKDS

B1: MED26 (protein, UniProt Q7TN02 1-588)
chain: MTAAPASPQQMRDRLLQAIDSQSNIRNMVAVLEVISSLERYPITKEALEETRLGKLINDVRKKTKNEELAKRAKRLLRSWQKLIEPVHQNEVALRALAGAAGSANGGAHNCRPEMGVAGAPKSIHDLKNRNDIQRLPGQRLDRLGSRKRRGDQRDLGHPGPPHKVSKGSPDPLVPNASPLPTNGISGSPESLPSPLDGSGHLGPDGSRLEPSDNEKHSTKIPVNAVRPRPSSPGLGKPPVPCLQTKAAQLQQLDRADESPGPPYPRGSSRCSFSPRNSRHEGSFSRHRSSYIPKGQVSSPSPWPQPPDNTQVPSPLPLAQPPTPPVRRQELLPNAESPVHWPEQSEGHPRLTGPACRAGFSPDSSKADSDATSSGGSDSKKKKRYRPRDYTVNLDGQVAEAGVKPVRLKERKLTFDPMTRQIRPLTQKEPVRADSPVPTEQLPRTELEQQEVKASLQSPFEQTNWKELSRNEIIQSYLSRQSSLLSSSGAQTPGAHHFMAEYLKQEESSRQGARQPHVLLPLPTPTDLPGLTREVTQDDLDRIQAQQWPGVNGCEDTQGNWYDWTQCISLDPHGDDGRLNILPYVCLD

Molecular target: T1, FS2-FBXL19 (epitope-tagged wild-type FBXL19, stable mouse ES cell line) (mouse)
Test: affinity purification with mass spectrometry

| binding | Molecule |
| --- | --- |
| no binding | CUL1 (from UniProt Q9WTX6 1-776) |
| binds | nuclear proteasome activator PSME3 (from UniProt P61290 1-254) |
| no binding | B1 |

Results are given in words; binding and its absence hold for the method and conditions named. In cells and extracts the contact can be indirect. These calls come from enrichment with a bait or labelling near it, and not all partners need be listed. A no says only that the protein was not detected with the bait. Sequences can lack the tags named with a protein.
